# Laboratory results as given in US20220017573A1.
# Legend:
# ComR = experiment: EMSA; details: with sComS, purified recombinant protein, protein details: C-terminal StrepTagII, expressed in E. coli, label: 5'-Cy3
# [1] = test system: ScuR (Streptococcus salivarius HSISS4); experiment: EMSA; details: purified recombinant protein, label: 5'-Cy3
# [2] = test system: SarF (Streptococcus salivarius HSISS4); experiment: EMSA; details: purified recombinant protein, label: 5'-Cy3
# [3] = test system: ComR (Streptococcus salivarius HSISS4); experiment: activity in cells; details: luxAB reporter; mutation bolsters ComRS-mediated activation; protein in cells; variant of PcomX probe; only the site is given
sequence,measurement,setting,value
AATGGTGGTGACATAAATGTCACTACTTTT (double strand) [PcomS probe],binding result,ComR; stronger than ScuR-sBI7,binds
same,binding result,"[1]; with sBI7, weakest ScuR affinity, smear",binds more weakly
TAACGAGTCAAAGTGACATAGATGTCCTTTTGATTCGTTA (double strand) [PsptA probe],binding result,ComR; binds though not transactivating in vivo,binds
same,binding result,[2]; binding increases progressively with sBI7 peptide,binds
same,binding result,"[1]; with peptide LAFWDSLG, 4 uM ScuR",binds
same,binding result,"[1]; with peptide LAFWDSLGLLL, only at extreme peptide concentration, 4 uM ScuR",binds more weakly
same,binding result,"[1]; with sBI7 peptide, strongest ScuR affinity, doublet at high concentration",binds
CTCCATAGTGACATTTATGTCACTATTTTT (double strand) [PslvX probe],binding result,ComR; stronger than ScuR-sBI7,binds
same,binding result,"[1]; with sBI7, less stable complex (smear), weaker than ComR-sComS",binds
TTTTATAGTGACATATATGTCGCTATTTTA (double strand) [PcomX probe],binding result,[2]; negative control probe,no binding
same,binding result,[1]; negative control probe,no binding
TTTTATAGTGACATATATGTCACTATTTTA (double strand) [PcomX G→A probe],binding result,[2]; variant of PcomX probe,no binding
same,binding result,"[1]; palindrome restored by G→A, variant of PcomX probe",binds
same,activity on this sequence,[3],active

# For at least one entry, the source does not settle the construct or the ends of the probe. For some assays here: A negative result means that nothing was seen under these conditions. For some assays here: The comparison behind a weaker result is the experiment's own reference, which may not be listed here.
